# Values joined by “and” are separate entries in the source; they are usually repeats but may differ in a detail not shown here. Equal entries are not always repeated. The list shows a part of the results. For some assays here: The exact form of the protein is not confirmed.
# Protein sequences, listed by entry. Tags and fused reporters are not part of them. Lines headed by an entry give the natural chain unless they say otherwise; changes in a name come on top.
# UniProt Q92481: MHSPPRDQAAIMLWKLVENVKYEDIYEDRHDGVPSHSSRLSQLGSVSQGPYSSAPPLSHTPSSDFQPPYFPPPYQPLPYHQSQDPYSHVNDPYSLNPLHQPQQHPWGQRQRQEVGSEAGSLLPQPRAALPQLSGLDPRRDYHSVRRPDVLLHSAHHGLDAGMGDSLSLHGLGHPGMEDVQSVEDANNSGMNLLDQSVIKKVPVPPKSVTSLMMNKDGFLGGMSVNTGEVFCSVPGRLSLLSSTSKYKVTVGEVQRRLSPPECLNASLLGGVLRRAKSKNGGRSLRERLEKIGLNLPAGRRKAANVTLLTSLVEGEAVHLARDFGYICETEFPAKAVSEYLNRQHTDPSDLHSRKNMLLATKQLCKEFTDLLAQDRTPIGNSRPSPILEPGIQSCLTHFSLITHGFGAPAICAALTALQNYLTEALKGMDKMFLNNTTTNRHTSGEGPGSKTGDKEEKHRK
# Key:
# Assay in all cases: protein microarray (ProtoArray v5.0), streptavidin-Alexa Fluor 647
# Details in all cases: 3'-biotin; 20 mM Tris (pH 7.5), 5 mM MgCl2, 100 mM KCl, 0.1% Tween-20, A/T-rich and random oligonucleotide blockers; temperature not stated; high values mean tight binding
# [1] = target: TFAP2B (UniProt Q92481)
# [2] = test system: THEM5 (human)
# [3] = target: T1, THEX1 (UniProt Q8IV48)
# T1 sequence: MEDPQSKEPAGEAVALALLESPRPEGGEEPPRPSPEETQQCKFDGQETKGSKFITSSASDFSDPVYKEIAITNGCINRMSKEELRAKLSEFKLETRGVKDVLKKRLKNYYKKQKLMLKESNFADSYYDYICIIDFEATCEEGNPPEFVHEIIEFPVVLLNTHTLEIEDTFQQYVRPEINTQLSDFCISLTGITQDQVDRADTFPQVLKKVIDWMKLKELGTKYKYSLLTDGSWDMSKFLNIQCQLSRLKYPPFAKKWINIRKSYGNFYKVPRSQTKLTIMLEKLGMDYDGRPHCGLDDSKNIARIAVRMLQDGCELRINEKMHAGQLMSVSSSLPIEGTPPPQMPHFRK
# [4] = test system: THRSP (human)
# [5] = test system: TICAM2 (human)
# [6] = test system: TIMM8A (human)
# [7] = test system: TIMM8B (human)
# [8] = test system: TINAGL1 (human)
# [9] = test system: TIPIN (human)
# [10] = test system: TLE3 (human)
# [11] = test system: TM4SF19 (human)
# [12] = test system: TMEM103 (human)
# [13] = test system: TMEM138 (human)
# [14] = test system: TMEM139 (human)
# [15] = test system: TMEM149 (human)
# [16] = test system: TMEM159 (human)
# [17] = test system: TMEM17 (human)
# [18] = test system: TMEM182 (human)
# [19] = test system: TMEM185A (human)
# [20] = test system: TMEM19 (human)
sequence,measurement,setting,value
GGGGACAGGGGTATGGGGAGGGG [G4-3 biotinylated (CtG)],binding signal,[1],3.73 z-score
same,binding signal,[2],-0.328 z-score
same,binding signal,[3],4.03 z-score
same,binding signal,[4],-0.317 z-score
same,binding signal,[5],-0.301 z-score
same,binding signal,[6],-0.325 z-score
same,binding signal,[7],-0.331 z-score
same,binding signal,[8],-0.309 z-score
same,binding signal,[9],-0.337 z-score
same,binding signal,[10],-0.337 z-score and -0.33 z-score
same,binding signal,[11],-0.319 z-score
same,binding signal,[12],-0.321 z-score
same,binding signal,[13],-0.327 z-score
same,binding signal,[14],-0.301 z-score
same,binding signal,[15],-0.323 z-score
same,binding signal,[16],-0.332 z-score
same,binding signal,[17],-0.321 z-score
same,binding signal,[18],-0.327 z-score
same,binding signal,[19],-0.319 z-score
same,binding signal,[20],-0.334 z-score

# Pulled one by one from above:
sequence,measurement,setting,value
GGGGACAGGGGTATGGGGAGGGG [G4-3 biotinylated (CtG)],binding signal,[4],-0.317 z-score
same,binding signal,[6],-0.325 z-score
